# Results deposited as PubChem BioAssay AID743121 (NCATS, 2013)
# Assay: 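Partners whose loss is lethal together with topoisomerase I blockade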 (primary screen)
# Cells: MDA-MB-231 cells, a human breast cancer line
# Reagents: single siRNA against human genes, 20 nM siRNA (0.8 pmol per well)
# Time to read-out: 120 h (drug added 48 h after transfection, read 72 h later)
# Conditions: camptothecin 20 nM (about EC30) for 72 h; vehicle 0.1% DMSO in parallel plates
# Detection: 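Cell viability by ATP luminescence (CellTiter-Glo) as % of non-targeting siRNA wells, and the log2 ratio of viability without drug over viability with camptothecin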
# Reading the numbers: log2 vehicle/camptothecin viability: higher = stronger sensitisation to camptothecin; viability with camptothecin and viability without drug: higher = more viable cells
# Rule for the call: 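Each gene scored by redundant siRNA activity (RSA) over its individual siRNA ratios; a gene is called active at p < 0.001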
# The whole screen tested about 26,000 reagents; below is an unselected part. In the full data, 167 (0.63%) were called active. 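Calls are per gene from RSA p-values that are not deposited; an individual active-marked siRNA can sensitise only weakly.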 Entries without a mark were called inactive. The numbers tell different reagents against one gene apart.
gene symbol,reagent no.,log2 vehicle/camptothecin viability,viability with camptothecin (% of control),viability without drug (% of control)
NOTCH1 (notch receptor 1),1,-0.0104,89.1,88.5
NOTCH1 (notch receptor 1),2,-0.436,57.6,42.6
NOTCH1 (notch receptor 1),3,-0.137,73.4,66.7
NOTCH1 (notch receptor 1),4,-0.143,73.1,66.2
DKK3 (dickkopf Wnt signaling pathway inhibitor 3),1,-0.224,70.5,60.4
DKK3 (dickkopf Wnt signaling pathway inhibitor 3),2,0.0139,90.1,90.9
DKK3 (dickkopf Wnt signaling pathway inhibitor 3),3,-0.088,89.8,84.5
DKK3 (dickkopf Wnt signaling pathway inhibitor 3),4,0.0898,69.7,74.2
RAD52 (RAD52 DNA repair protein),1,-0.222,96.1,82.4
RAD52 (RAD52 DNA repair protein),2,-0.0607,86.5,83
RAD52 (RAD52 DNA repair protein),3,0.217,29.3,34.1
NODAL (nodal growth differentiation factor),1,0.086,95.7,102
NODAL (nodal growth differentiation factor),2,-0.00286,105,105
NODAL (nodal growth differentiation factor),3,-0.174,94.8,84.1
NODAL (nodal growth differentiation factor),4,-0.407,37.7,28.4
TMEM158 (transmembrane protein 158),1,-0.328,46.6,37.1
TMEM158 (transmembrane protein 158),2,0.0289,92.6,94.5
TMEM158 (transmembrane protein 158),3,0.207,36.6,42.3
TMEM158 (transmembrane protein 158),4,0.133,13.4,14.6
"NRAS (NRAS proto-oncogene, GTPase)",1,-0.432,113,83.8
"NRAS (NRAS proto-oncogene, GTPase)",2,-0.304,31,25.1
"NRAS (NRAS proto-oncogene, GTPase)",3,-0.399,104,79
"NRAS (NRAS proto-oncogene, GTPase)",4,0.117,85.6,92.9
CBL (Cbl proto-oncogene),1,-0.0761,84.3,80
CBL (Cbl proto-oncogene),2,-0.417,64.8,48.5
CBL (Cbl proto-oncogene),3,-0.167,129,115
CBL (Cbl proto-oncogene),4,-0.209,100,86.9
AK2 (adenylate kinase 2),1,-0.455,57.8,42.1
AK2 (adenylate kinase 2),2,-0.424,92.5,68.9
AK2 (adenylate kinase 2),3,-0.0966,113,106
AK2 (adenylate kinase 2),4,-0.117,93.7,86.4
AK2 (adenylate kinase 2),5,-0.317,69.1,55.4
AK2 (adenylate kinase 2),6,-0.352,79.5,62.3
AK2 (adenylate kinase 2),7,-0.464,112,81.1
AK2 (adenylate kinase 2),8,-0.309,91.9,74.2
CCRL2 (C-C motif chemokine receptor like 2),1,-0.463,103,74.9
CCRL2 (C-C motif chemokine receptor like 2),2,-0.307,131,106
CCRL2 (C-C motif chemokine receptor like 2),3,-0.306,50.2,40.6
CCRL2 (C-C motif chemokine receptor like 2),4,0.0999,82.3,88.2
ESYT1 (extended synaptotagmin 1),1,0.0534,64,66.4
ESYT1 (extended synaptotagmin 1),2,-0.609,109,71.3
ESYT1 (extended synaptotagmin 1),3,-0.344,124,97.5
ESYT1 (extended synaptotagmin 1),4,-0.113,42.7,39.5
"RAB40B (RAB40B, member RAS oncogene family)",1,-0.436,56.1,41.5
"RAB40B (RAB40B, member RAS oncogene family)",2,0.0352,56.2,57.6
"RAB40B (RAB40B, member RAS oncogene family)",3,-0.141,111,101
"RAB40B (RAB40B, member RAS oncogene family)",4,-0.478,85.2,61.2
LBP (lipopolysaccharide binding protein),1,0.35,57.3,73
LBP (lipopolysaccharide binding protein),2,0.975,15.7,30.9
LBP (lipopolysaccharide binding protein),3,-0.06,98.5,94.5
LBP (lipopolysaccharide binding protein),4,-0.278,83.5,68.8
GBA1 (glucosylceramidase beta 1),1,0.497,63.2,89.2
GBA1 (glucosylceramidase beta 1),2,-0.0547,93.8,90.3
GBA1 (glucosylceramidase beta 1),3,-0.961,79.4,40.8
GBA1 (glucosylceramidase beta 1),4,0.573,36.8,54.8
REEP2 (receptor accessory protein 2),1,0.55,23.2,34
REEP2 (receptor accessory protein 2),2,-0.173,102,90.1
REEP2 (receptor accessory protein 2),3,-0.31,84.6,68.2
REEP2 (receptor accessory protein 2),4,0.41,57.3,76.2
TRIM21 (tripartite motif containing 21),1,-0.0164,59.1,58.5
TRIM21 (tripartite motif containing 21),2,0.195,5.43,6.22
TRIM21 (tripartite motif containing 21),3,-0.27,61.7,51.2
TRIM21 (tripartite motif containing 21),4,0.311,30,37.2
AGTR2 (angiotensin II receptor type 2),1,-0.479,56.1,40.2
AGTR2 (angiotensin II receptor type 2),2,0.387,57.6,75.3
AGTR2 (angiotensin II receptor type 2),3,-0.0442,78,75.7
AGTR2 (angiotensin II receptor type 2),4,-0.585,41.3,27.5
CHAF1B (chromatin assembly factor 1 subunit B),1,-0.224,53.2,45.6
CHAF1B (chromatin assembly factor 1 subunit B),2,-0.377,24.6,19
CHAF1B (chromatin assembly factor 1 subunit B),3,0.13,77.9,85.3

3 successive entries from above, for reference:
gene symbol,reagent no.,log2 vehicle/camptothecin viability,viability with camptothecin (% of control),viability without drug (% of control)
AGTR2 (angiotensin II receptor type 2),1,-0.479,56.1,40.2
AGTR2 (angiotensin II receptor type 2),2,0.387,57.6,75.3
AGTR2 (angiotensin II receptor type 2),3,-0.0442,78,75.7
